These are yes or no findings as the source states them, for the method shown. Where a sequence is shown, tags or fusion partners need not be part of it.

In the experiment the target is transmembrane domain of CD4 coupled to Cub ('artificial bait') (human). Kind of experiment: two-hybrid; Membrane Yeast Two-Hybrid (MYTH), S. cerevisiae NMY51 (HIS3/ADE2/LacZ); Cub-tagged bait, NubG-tagged prey; colony growth on interaction selective media (SD-WLAH) containing X-Gal; confirmed by back transformation.

B1: NEDD4 family interacting protein 2 (NDFIP2) clone from the MYTH screening, amino acids 203-336, NubG-tagged (domain or fragment, UniProt Q9NV92 203-336)
chain: ETSQRIQEEECPPRDDFSDADQLRVGNDGIFMLAFFMAFIFNWLGFCLSFCITNTIAGRYGAICGFGLSLIKWILIVRFSDYFTGYFNGQYWLWWIFLVLGLLLFFRGFVNYLKVRNMSESMAAAHRTRYFFLL
Regarding B1, the binding entry is “no binding”.

These data come from paper PMC5606929.
